The assay addresses EIN2C^479–1294ΔNLS fused to Cerulean (Arabidopsis thaliana) (UniProt Q9S814). Kind of assay: FRET or BRET; in planta FLIM-FRET in transiently transformed N. benthamiana epidermal leaf cells; Cerulean fusion as donor, YFP fusions as acceptors; cytosol, ER or nucleus (IMPα5-YFP and IMPα6-YFP: nuclei only). A general note: In BRET a luciferase serves as donor, and the signal depends on an acceptor being close.

Sequences of proteins named here, by UniProt entry; tags and fusion partners are left off. A change or cut given only in a name is not applied to a line headed by its entry.
UniProt Q9S814: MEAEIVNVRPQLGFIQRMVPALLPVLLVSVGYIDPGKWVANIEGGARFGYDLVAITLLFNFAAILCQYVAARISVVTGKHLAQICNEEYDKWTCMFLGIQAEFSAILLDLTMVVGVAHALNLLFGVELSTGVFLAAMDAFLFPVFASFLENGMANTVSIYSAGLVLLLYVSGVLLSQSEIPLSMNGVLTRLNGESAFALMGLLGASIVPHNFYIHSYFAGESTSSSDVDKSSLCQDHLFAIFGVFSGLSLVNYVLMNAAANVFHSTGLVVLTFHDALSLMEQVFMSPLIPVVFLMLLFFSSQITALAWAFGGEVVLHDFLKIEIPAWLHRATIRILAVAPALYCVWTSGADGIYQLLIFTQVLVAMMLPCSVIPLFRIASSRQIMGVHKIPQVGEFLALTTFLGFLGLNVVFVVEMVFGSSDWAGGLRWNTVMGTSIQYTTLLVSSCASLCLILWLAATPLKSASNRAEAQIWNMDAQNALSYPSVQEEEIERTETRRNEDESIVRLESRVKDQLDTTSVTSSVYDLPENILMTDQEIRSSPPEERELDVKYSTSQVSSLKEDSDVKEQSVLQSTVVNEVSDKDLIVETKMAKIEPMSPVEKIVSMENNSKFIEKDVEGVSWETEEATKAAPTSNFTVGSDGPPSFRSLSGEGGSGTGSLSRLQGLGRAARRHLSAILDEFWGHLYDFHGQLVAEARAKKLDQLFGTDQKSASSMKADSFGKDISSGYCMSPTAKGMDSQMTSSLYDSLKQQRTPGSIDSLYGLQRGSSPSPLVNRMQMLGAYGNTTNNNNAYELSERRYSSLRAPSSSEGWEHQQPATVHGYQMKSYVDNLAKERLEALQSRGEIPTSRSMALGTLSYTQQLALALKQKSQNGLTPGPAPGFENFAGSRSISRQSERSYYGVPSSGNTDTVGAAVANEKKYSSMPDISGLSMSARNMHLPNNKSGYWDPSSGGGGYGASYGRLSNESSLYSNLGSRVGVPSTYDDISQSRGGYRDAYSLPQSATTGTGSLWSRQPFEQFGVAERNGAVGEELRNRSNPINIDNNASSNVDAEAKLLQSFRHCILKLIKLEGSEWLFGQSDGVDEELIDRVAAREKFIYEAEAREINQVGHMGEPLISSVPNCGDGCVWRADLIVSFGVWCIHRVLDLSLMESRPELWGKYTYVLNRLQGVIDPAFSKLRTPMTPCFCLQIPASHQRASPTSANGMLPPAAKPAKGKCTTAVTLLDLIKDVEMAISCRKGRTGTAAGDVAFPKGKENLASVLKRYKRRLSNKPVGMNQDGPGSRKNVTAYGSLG
UniProt O04294: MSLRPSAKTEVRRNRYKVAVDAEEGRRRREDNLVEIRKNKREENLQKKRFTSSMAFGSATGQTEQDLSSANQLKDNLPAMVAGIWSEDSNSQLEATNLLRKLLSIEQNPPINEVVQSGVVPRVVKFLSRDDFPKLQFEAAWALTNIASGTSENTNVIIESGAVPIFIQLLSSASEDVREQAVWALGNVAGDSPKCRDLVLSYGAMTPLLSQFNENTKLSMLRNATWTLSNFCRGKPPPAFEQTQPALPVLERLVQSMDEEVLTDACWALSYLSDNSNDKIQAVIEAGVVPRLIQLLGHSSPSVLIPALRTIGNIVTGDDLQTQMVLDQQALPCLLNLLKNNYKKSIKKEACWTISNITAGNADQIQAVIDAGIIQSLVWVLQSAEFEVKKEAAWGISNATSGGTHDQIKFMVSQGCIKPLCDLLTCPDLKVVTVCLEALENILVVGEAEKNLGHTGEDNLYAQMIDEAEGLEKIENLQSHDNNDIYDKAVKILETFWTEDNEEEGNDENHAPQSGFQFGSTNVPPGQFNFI

These are yes or no findings as the source states them, for the method shown. In cells and extracts the contact can be indirect.

Data on 1 substance can be found in paper PMC12871931, “The importin‐alpha superfamily engages in ethylene signaling by shuttling ETHYLENE INSENSITIVE 2 from the endoplasmic reticulum to the nucleus” (The Febs Journal, 2025).

As for “IMPα3 fused to YFP (from UniProt O04294 1-531)”, the binding result is given as “no binding”.
